# Measured values taken from the supplement of paper PMC9744312.
# Structures can show the parent of a compound that is named as a salt. Some of the results follow. Single values of this set are uncertain.
# System: Peyronie's disease tunica albuginea primary fibroblasts
# Assay: inhibition of TGF-beta1-induced alpha-SMA expression (myofibroblast transformation), relative to TGF-beta1-only and untreated controls; higher = stronger inhibition of myofibroblast transformation
# Conditions: 10 µM; TGF-beta1 10 ng/mL; 72 h
row,SMILES,inhibition of TGF-beta1-induced alpha-SMA expression
1,CN(C)CCCN1c2ccccc2Sc2ccccc21 [Promazine hydrochloride],40.1%
2,CC(=O)O[C@]1(C(C)=O)CC[C@H]2[C@@H]3C[C@H](C)C4=CC(=O)C=C[C@]4(C)[C@@]3(F)[C@@H](O)C[C@@]21C [Fluorometholone Acetate],10.5%
3,O=C[C@H](O)[C@@H](O)[C@H](O)CO [Xylose],-15.1%
4,CC(C)(C(=O)O)c1ccc(C(O)CCCN2CCC(C(O)(c3ccccc3)c3ccccc3)CC2)cc1 (stereo not drawn) [Fexofenadine HCl],-1.55%
5,Cc1c(C)c2c(c(C)c1O)CCC(C)(COc1ccc(CC3SC(=O)NC3=O)cc1)O2 (stereo not drawn) [Troglitazone (CS-045)],-24%
6,Cc1ccccc1-c1cc(N2CCN(C)CC2)ncc1N(C)C(=O)C(C)(C)c1cc(C(F)(F)F)cc(C(F)(F)F)c1 [Netupitant],1.86%
7,C[N+]1(C)[C@@H]2CC[C@H]1C[C@@H](OC(=O)C(O)c1ccccc1)C2 (stereo partly drawn) [Homatropine Methylbromide],76.2%
8,COC(c1ccccc1)(c1ccccc1)[C@H](Oc1nc(C)cc(C)n1)C(=O)O [Ambrisentan],23.5%
9,COC(=O)C1=C(C)NC(C)=C(C(=O)OCCN2CCN(C(c3ccccc3)c3ccccc3)CC2)C1c1cccc([N+](=O)[O-])c1 (stereo not drawn) [Manidipine],32.2%
10,COC(=O)C1=C(C)NC(C)=C(C(=O)OCCN2CCN(C(c3ccccc3)c3ccccc3)CC2)C1c1cccc([N+](=O)[O-])c1 (stereo not drawn) [Manidipine 2HCl],2.14%
11,CC(=O)Nc1ccccc1 [Acetanilide],5.95%
12,C[N+]1(C)[C@@H]2C[C@@H](OC(=O)C(O)(c3cccs3)c3cccs3)C[C@H]1[C@@H]1O[C@@H]12 [Tiotropium Bromide hydrate],9.12%
13,CC(C(=O)O)c1ccc2c(c1)Cc1cccnc1O2 (stereo not drawn) [Pranoprofen],22.7%
14,C[C@H]1COc2c(C3(N)CC3)c(F)cc3c(=O)c(C(=O)O)cn1c23 [Pazufloxacin mesylate],-14.9%
15,CC(C)(C)C(=O)Oc1ccc(S(=O)(=O)Nc2ccccc2C(=O)NCC(=O)O)cc1 [Sivelestat sodium tetrahydrate],20.3%
16,CC(C)(C)C(=O)Oc1ccc(S(=O)(=O)Nc2ccccc2C(=O)NCC(=O)O)cc1 [Sivelestat (ONO-5046)],28.6%
17,COC(=O)Nc1nc2cc(C(=O)c3ccccc3)ccc2[nH]1 [Mebendazole],> 100%
18,CC1(C)S[C@@H]2[C@H](NC(=O)[C@H](NC(=O)N3CCNC3=O)c3ccccc3)C(=O)N2[C@H]1C(=O)O [Azlocillin sodium salt],11.2%
19,Cc1cc2c(cc1S(N)(=O)=O)S(=O)(=O)CCC2 [Meticrane],74.2%
20,"CC(C)OC(=O)[C@H](C)N[P@](=O)(OC[C@H]1O[C@@H](n2ccc(=O)[nH]c2=O)[C@](C)(F)[C@@H]1O)Oc1ccccc1 [Sofosbuvir (PSI-7977, GS-7977)]",-14.8%
21,CN1C(C)(C)CCCC1(C)C [Pempidine],30.4%
22,Cc1onc(-c2c(Cl)cccc2Cl)c1C(=O)N[C@@H]1C(=O)N2[C@@H]1SC(C)(C)[C@@H]2C(=O)O [Dicloxacillin Sodium],-66.1%
23,CN(C)/N=N/c1[nH]cnc1C(N)=O [Dacarbazine],-13.6%

# An excerpt of these results, as tab-separated lines:
row	SMILES	inhibition of TGF-beta1-induced alpha-SMA expression
5	Cc1c(C)c2c(c(C)c1O)CCC(C)(COc1ccc(CC3SC(=O)NC3=O)cc1)O2 (stereo not drawn) [Troglitazone (CS-045)]	-24%
6	Cc1ccccc1-c1cc(N2CCN(C)CC2)ncc1N(C)C(=O)C(C)(C)c1cc(C(F)(F)F)cc(C(F)(F)F)c1 [Netupitant]	1.86%
9	COC(=O)C1=C(C)NC(C)=C(C(=O)OCCN2CCN(C(c3ccccc3)c3ccccc3)CC2)C1c1cccc([N+](=O)[O-])c1 (stereo not drawn) [Manidipine]	32.2%
11	CC(=O)Nc1ccccc1 [Acetanilide]	5.95%
16	CC(C)(C)C(=O)Oc1ccc(S(=O)(=O)Nc2ccccc2C(=O)NCC(=O)O)cc1 [Sivelestat (ONO-5046)]	28.6%

# The results go on:

row,SMILES,inhibition of TGF-beta1-induced alpha-SMA expression
1,C[N+](C)(C)CCCCCC[N+](C)(C)C [Hexamethonium?Dibromide],-10.1%
2,O=c1ccc2ccc(OCCCCN3CCN(c4cccc5sccc45)CC3)cc2[nH]1 [Brexpiprazole],39.1%
3,CC1CC(OC(=O)C(O)c2ccccc2)CC(C)(C)C1 (stereo not drawn) [Cyclandelate],55.5%
4,O=C(O)c1cccnc1Nc1cccc(C(F)(F)F)c1 [Niflumic acid],24.5%
5,Cc1oncc1C(=O)Nc1ccc(C(F)(F)F)cc1 [Leflunomide],26.4%
6,COc1ccc(C(Cl)=C(c2ccc(OC)cc2)c2ccc(OC)cc2)cc1 [Chlorotrianisene],95.4%
7,Cc1cn([C@H]2O[C@@H](CO)[C@H](O)[C@H]2F)c(=O)[nH]c1=O [Clevudine],-1.68%
8,CCOC(=O)[C@H](CCc1ccccc1)N[C@@H](C)C(=O)N1Cc2ccccc2C[C@H]1C(=O)O [Quinapril HCl],10.8%
9,CC(CCc1ccccc1)NCC(O)c1ccc(O)c(C(N)=O)c1 (stereo not drawn) [Labetalol HCl],33.4%
10,Fc1ccc(C(c2ccc(F)cc2)N2CCN(C/C=C/c3ccccc3)CC2)cc1 [Flunarizine 2HCl],0.799%
11,CCCCC(=O)O[C@H]1CC[C@H]2[C@@H]3CCc4cc(O)ccc4[C@H]3CC[C@]12C [Estradiol valerate],22.9%
12,O=C(OC[C@H]1O[C@@H](OC(=O)c2cc(O)c(O)c(OC(=O)c3cc(O)c(O)c(O)c3)c2)[C@H](OC(=O)c2cc(O)c(O)c(OC(=O)c3cc(O)c(O)c(O)c3)c2)[C@@H](OC(=O)c2cc(O)c(O)c(OC(=O)c3cc(O)c(O)c(O)c3)c2)[C@@H]1OC(=O)c1cc(O)c(O)c(OC(=O)c2cc(O)c(O)c(O)c2)c1)c1cc(O)c(O)c(OC(=O)c2cc(O)c(O)c(O)c2)c1 [Tannic acid],37.1%
13,N=C(N)c1ccc(OCCCCCOc2ccc(C(=N)N)cc2)cc1 [Pentamidine isethionate],41.4%
14,OCCOCCN1CCN(C2=Nc3ccccc3Sc3ccccc32)CC1 [Quetiapine Fumarate],30.6%
15,CCC(=O)O[C@@H](O[P@](=O)(CCCCc1ccccc1)CC(=O)N1C[C@H](C2CCCCC2)C[C@H]1C(=O)O)C(C)C [Fosinopril Sodium],45.2%
16,CC1(C)S[C@@H]2[C@H](NC(=O)[C@H](N)c3ccc(O)cc3)C(=O)N2[C@H]1C(=O)O [Amoxicillin trihydrate],-14.9%
17,CC1(C)S[C@@H]2[C@H](NC(=O)[C@H](N)c3ccc(O)cc3)C(=O)N2[C@H]1C(=O)O [Amoxicillin],-7.2%
18,CC1(C)S[C@@H]2[C@H](NC(=O)[C@H](N)c3ccc(O)cc3)C(=O)N2[C@H]1C(=O)O [Amoxicillin Sodium],4.14%
19,Nc1nc(Cl)nc2c1ncn2[C@H]1C[C@H](O)[C@@H](CO)O1 [Cladribine],4.74%
20,CN[C@@H]1[C@H](O[C@H]2[C@H](O[C@H]3[C@H](O)[C@@H](O)[C@H](N=C(N)N)[C@@H](O)[C@@H]3N=C(N)N)O[C@@H](C)[C@]2(O)C=O)O[C@@H](CO)[C@H](O)[C@H]1O [Streptomycin sulfate],-24.5%
21,Cn1nnc(-c2ccc(-c3ccc(N4C[C@H](COP(=O)(O)O)OC4=O)cc3F)cn2)n1 [Tedizolid Phosphate],-40.4%
22,CCOC(=O)C1=C[C@@H](OC(CC)CC)[C@H](NC(C)=O)[C@@H](N)C1 [Oseltamivir Phosphate],17.6%
23,C[C@]12CCC(=O)C=C1CC[C@@H]1[C@@H]2[C@@H](O)C[C@@]2(C)[C@H]1CC[C@]2(O)C(=O)CO [Hydrocortisone],86.9%

row,SMILES,inhibition of TGF-beta1-induced alpha-SMA expression
1,C=C[C@]1(C)C[C@@H](OC(=O)CS[C@@H]2C[C@H]3CC[C@@H](C2)N3C)[C@]2(C)[C@H](C)CC[C@]3(CCC(=O)[C@H]32)[C@@H](C)[C@@H]1O [Retapamulin],63.6%
2,CN(N=O)C(=O)NC1C(O)OC(CO)C(O)C1O (stereo not drawn) [Streptozotocin (STZ)],-28.6%
3,Oc1ncnc2[nH]ncc12 [Allopurinol],6.7%
4,CO/N=C(\C(=O)N[C@@H]1C(=O)N2C(C(=O)OCOC(=O)C(C)(C)C)=C(/C=C\c3scnc3C)CS[C@H]12)c1csc(N)n1 [Cefditoren Pivoxil],19.3%
5,COc1ccc(CCN(C)CCCC(C#N)(c2ccc(OC)c(OC)c2)C(C)C)cc1OC (stereo not drawn) [Verapamil HCl],-42.8%
6,Cc1onc(-c2ccccc2)c1-c1ccc(S(N)(=O)=O)cc1 [Valdecoxib],40%
7,CCCc1cc(=O)[nH]c(=S)[nH]1 [Propylthiouracil],35.2%
8,CCCC(CCC)C(N)=O [Valpromide],12.5%
9,C[C@]12CC[C@@H]3c4ccc(O)cc4CC[C@H]3[C@@H]1CC[C@@H]2O [Estradiol],12.5%
10,CCCN(CCC)S(=O)(=O)c1ccc(C(=O)O)cc1 [Probenecid],-11.5%
11,CC(OC(=O)OC1CCCCC1)OC(=O)C1=C(CSc2nnnn2CCN(C)C)CS[C@@H]2[C@H](NC(=O)Cc3csc(N)n3)C(=O)N12 (stereo partly drawn) [Cefotiam Hexetil Hydrochloride],34.4%
12,CCN(CC)C(=O)c1cccnc1 [Nikethamide],12%
13,CCN(CC)C(=O)c1cccc(C)c1,29.8%
14,CN(C)CCOC(c1ccccc1)c1ccccc1 [Diphenhydramine HCl],-7.99%
15,O=C(O)CSc1nnc(Br)n1-c1ccc(C2CC2)c2ccccc12 [Lesinurad],-16%
16,CC(=O)[C@H]1CC[C@H]2[C@@H]3CCC4=CC(=O)CC[C@]4(C)[C@H]3CC[C@]12C [Progesterone],46.7%
17,CN(C)CC/C=C1/c2ccccc2Sc2ccc(Cl)cc21 [Chlorprothixene],73.4%
18,CN(C)CC/C=C1/c2ccccc2Sc2ccc(Cl)cc21 [Chlorprothixene hydrochloride],69.5%
19,CC1(C)CCC(C)(C)c2cc(NC(=O)c3ccc(C(=O)O)cc3)ccc21 [Tamibarotene],-72.9%
20,N[C@@H](Cc1cc(I)c(Oc2cc(I)c(O)c(I)c2)c(I)c1)C(=O)O [L-Thyroxine],-8.86%
21,N[C@@H](Cc1cc(I)c(Oc2cc(I)c(O)c(I)c2)c(I)c1)C(=O)O [Levothyroxine sodium],2.72%
22,COc1cc(C(=O)O)ccc1NC(=O)[C@@H]1N[C@@H](CC(C)(C)C)[C@](C#N)(c2ccc(Cl)cc2F)[C@H]1c1cccc(Cl)c1F [Idasanutlin (RG-7388)],7.59%
